The source of these data is article PMC3616908.

Results are given in words; binding and its absence hold for the method and conditions named. Binding calls can cover weak binding; strength is not graded here. Where a sequence is shown, tags or fusion partners need not be part of it.

This assay deals with T1, Chk1 (yeast two-hybrid fusion) (S. cerevisiae) (UniProt P38147).
T1 sequence: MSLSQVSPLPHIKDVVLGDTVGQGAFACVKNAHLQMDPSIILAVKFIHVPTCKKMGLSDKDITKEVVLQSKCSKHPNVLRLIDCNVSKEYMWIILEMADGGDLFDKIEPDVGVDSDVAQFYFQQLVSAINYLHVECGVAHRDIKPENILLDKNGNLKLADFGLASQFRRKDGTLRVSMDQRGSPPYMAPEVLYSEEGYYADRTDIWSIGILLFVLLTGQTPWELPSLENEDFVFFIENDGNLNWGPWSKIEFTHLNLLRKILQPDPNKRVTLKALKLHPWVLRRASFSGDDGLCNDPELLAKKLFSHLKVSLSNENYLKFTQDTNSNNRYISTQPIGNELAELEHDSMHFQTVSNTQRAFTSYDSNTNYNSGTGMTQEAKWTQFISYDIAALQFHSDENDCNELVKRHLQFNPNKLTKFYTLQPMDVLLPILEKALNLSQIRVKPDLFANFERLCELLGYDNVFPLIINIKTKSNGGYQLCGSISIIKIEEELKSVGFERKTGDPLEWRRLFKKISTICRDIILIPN
The assay is described as follows: two-hybrid; Clontech Matchmaker Gold system; interaction read by white colony colour, resistance to Aureobasidin A and blue colour on X-alpha-gal (Figure 5A, six clones each); read-out of Figures 6A and S6C-E not told.
On to “Rad9 CAD^CDK1-9A+6D7D (yeast two-hybrid fusion) (S. cerevisiae) (domain or fragment)”, for which the binding result was “binds”.
For “Rad9 CAD^CDK1-9A+6D (yeast two-hybrid fusion) (S. cerevisiae) (domain or fragment)”, the binding entry was “binds”.
As to “Rad9 CAD^CDK1-9A+6T7T (yeast two-hybrid fusion) (S. cerevisiae) (domain or fragment)”, the binding result is recorded as “binds”.
The result for “Rad9 CAD^CDK1-9A+6T (yeast two-hybrid fusion) (S. cerevisiae) (domain or fragment)” reads “binds”.
On to “Rad9 CAD^CDK1-9A+7D (yeast two-hybrid fusion) (S. cerevisiae) (domain or fragment)”, for which the binding entry is given as “binds”.
Take “Rad9 CAD^CDK1-9A+7T (yeast two-hybrid fusion) (S. cerevisiae) (domain or fragment)”: the binding entry was “binds”.
